From paper PMC7782553
These are yes or no findings as the source states them, for the method shown. Binding seen in cells or lysates may run through a third protein. Some results given as binding are weak or reduced against the parent protein; the word gives no strength. For part of these data: Sequences can lack the tags named with a protein. One block for each molecule: values may come before it.

Sequences of proteins named here, by UniProt entry; tags and fusion partners are left off.
UniProt P67809: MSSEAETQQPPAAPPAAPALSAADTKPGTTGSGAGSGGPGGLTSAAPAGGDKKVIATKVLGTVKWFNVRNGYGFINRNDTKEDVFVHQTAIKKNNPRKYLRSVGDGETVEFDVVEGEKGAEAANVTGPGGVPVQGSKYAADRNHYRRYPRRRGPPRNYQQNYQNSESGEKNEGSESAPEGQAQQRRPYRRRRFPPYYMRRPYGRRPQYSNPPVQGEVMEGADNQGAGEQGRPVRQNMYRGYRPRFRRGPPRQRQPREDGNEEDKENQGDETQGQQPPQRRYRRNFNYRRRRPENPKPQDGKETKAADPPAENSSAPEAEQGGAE

Assays:
Flag-USP47 = biological target: T1, Flag-USP47 (UniProt Q96K76); test: co-IP; Flag-USP47 with GFP-YB-1 or GFP-YB-1-mu transfected in HEK293T; IP with anti-Flag antibody, western blot with anti-GFP antibody
T1 sequence: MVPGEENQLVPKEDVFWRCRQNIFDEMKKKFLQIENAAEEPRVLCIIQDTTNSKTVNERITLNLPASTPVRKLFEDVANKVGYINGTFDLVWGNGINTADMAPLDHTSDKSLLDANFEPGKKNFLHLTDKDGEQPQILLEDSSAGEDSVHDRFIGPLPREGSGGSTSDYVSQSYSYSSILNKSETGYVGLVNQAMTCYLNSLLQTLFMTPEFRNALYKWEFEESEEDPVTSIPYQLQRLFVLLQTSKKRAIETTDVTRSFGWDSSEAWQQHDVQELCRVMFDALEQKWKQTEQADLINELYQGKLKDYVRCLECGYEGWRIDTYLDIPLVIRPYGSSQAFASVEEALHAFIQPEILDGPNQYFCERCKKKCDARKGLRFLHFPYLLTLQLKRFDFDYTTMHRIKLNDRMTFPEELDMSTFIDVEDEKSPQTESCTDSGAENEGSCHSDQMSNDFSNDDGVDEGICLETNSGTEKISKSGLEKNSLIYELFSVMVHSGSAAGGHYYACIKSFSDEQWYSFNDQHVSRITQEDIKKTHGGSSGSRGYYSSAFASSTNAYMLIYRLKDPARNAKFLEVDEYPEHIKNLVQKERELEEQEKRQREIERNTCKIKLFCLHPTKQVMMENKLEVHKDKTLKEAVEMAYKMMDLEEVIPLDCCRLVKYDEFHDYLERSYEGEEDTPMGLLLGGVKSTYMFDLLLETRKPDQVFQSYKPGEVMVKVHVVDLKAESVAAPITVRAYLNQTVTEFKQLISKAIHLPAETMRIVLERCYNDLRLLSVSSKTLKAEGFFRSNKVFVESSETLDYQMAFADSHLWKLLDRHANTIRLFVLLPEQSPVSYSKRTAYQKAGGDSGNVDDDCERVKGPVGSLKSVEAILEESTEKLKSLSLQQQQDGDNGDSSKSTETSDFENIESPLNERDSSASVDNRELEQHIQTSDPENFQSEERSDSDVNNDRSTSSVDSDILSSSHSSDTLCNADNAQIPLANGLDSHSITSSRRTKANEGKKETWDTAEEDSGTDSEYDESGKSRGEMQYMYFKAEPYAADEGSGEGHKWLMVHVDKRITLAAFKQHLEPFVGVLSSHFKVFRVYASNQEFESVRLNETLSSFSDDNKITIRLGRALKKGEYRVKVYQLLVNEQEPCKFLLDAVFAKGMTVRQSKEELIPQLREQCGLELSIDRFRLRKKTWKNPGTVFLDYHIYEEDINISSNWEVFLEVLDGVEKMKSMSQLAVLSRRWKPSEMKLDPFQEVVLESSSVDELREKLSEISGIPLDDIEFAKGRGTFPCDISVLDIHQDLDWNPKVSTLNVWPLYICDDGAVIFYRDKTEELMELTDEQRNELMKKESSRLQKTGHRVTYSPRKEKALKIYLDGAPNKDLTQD

[1] = biological target: T2, ubiquitin-specific peptidase 47 (USP47), endogenous (human (endogenous in K562 and primary CML cells)) (UniProt Q96K76); test: co-IP; endogenous proteins; whole-cell extracts of K562 and primary CML cells, antibody overnight at 4 °C, protein A&G beads, washed three times with PBS, western blot
T2 sequence: T1 sequence

GFP-YB-1 full length = GFP-YB-1 full length (UniProt P67809); test: co-IP; GFP-YB-1 (full length or deletion constructs) co-transfected with Flag-USP47 in HEK293T; IP with anti-GFP antibody, western blot with anti-Flag antibody

binding (Flag-USP47): binds
Molecule: GFP-YB-1 full length (from UniProt P67809 1-324)

binding [1]: binds
Molecule: Y-box binding protein 1 (YB-1), endogenous (from UniProt P67809 1-324)

binding (GFP-YB-1 full length): binds
B1: Flag-USP47 (enzyme, UniProt Q96K76 1-1375)
chain: T1 sequence
